These results are taken from the supplement of paper PMC8326762, “A Small Molecule Inhibitor of Pex3–Pex19 Interaction Disrupts Glycosome Biogenesis and Causes Lethality in Trypanosoma brucei” (Frontiers in Cell and Developmental Biology, 2021).

Structures can show the parent of a compound that is named as a salt. The list shows a part of the results. The data scatter; read single values as rough.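 Yeast growth was measured as optical density at 600 nm. Two-hybrid strains grew without histidine, so growth depended on Pex3–Pex19 binding. A compound was trypanosome-selective if it reduced growth of the trypanosome-pair strain by over 65% and of the human-pair strain by under 65%.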

In the first experiment the test system is human PEX3-PEX19 interaction (yeast two-hybrid). The experiment in a line: growth inhibition of yeast two-hybrid strain reporting HsPex3-HsPex19 interaction, relative to DMSO; higher = stronger inhibition of human Pex3-Pex19 interaction / growth. Particulars: 100 µM; 24 h; 3-aminotriazole 10 mM.
In the case of `CNC(=C[N+](=O)[O-])NCCSCc1ccc(CN(C)C)o1` [Ranitidine hydrochloride], the growth inhibition came to 49.6%.
With `N[C@@H](Cc1c[nH]c2ccc(O)cc12)C(=O)O` [5-Hydroxy-L-tryptophan], the growth inhibition turned out to be 33.8%.
Consider `CCCCS(=N)(=O)CCC(N)C(=O)O` (racemic) [DL-Buthionine-[S,R]-sulfoximine], for which the growth inhibition is 9.21%.
As for `COCCc1ccc(OCC(O)CNC(C)C)cc1` (racemic) [(±)-Metoprolol (+)-tartrate], the growth inhibition was 7.23%.

The next experiment relates to T. brucei Pex3-Pex19 interaction (yeast two-hybrid). The experiment in a line: growth inhibition of yeast two-hybrid strain reporting TbPex3-TbPex19 interaction, relative to DMSO; higher = stronger inhibition of T. brucei Pex3-Pex19 interaction / growth. As to conditions: 100 µM; 24 h.
In the case of `Cc1cc2c(cc1Cl)N(C(=O)Nc1ccc(Oc3cccnc3C)nc1)CC2`, the growth inhibition turned out to be 53.5%.
For `O=C1NC(=O)c2cc(Nc3ccccc3)c(Nc3ccccc3)cc21`, the growth inhibition is -8.67%.
For `CN(C)CCC=C1c2ccccc2CCc2ccccc21` [Amitriptyline hydrochloride], the growth inhibition stood at 64.5%.
Still for that read-out and setting: with `CCN(CC)CCCN(c1ccccc1)C1Cc2ccccc2C1` [Aprindine hydrochloride] the figure was 60.5%; with `CC#C[C@]1(O)CC[C@H]2[C@@H]3CCC4=CC(=O)CCC4=C3[C@@H](c3ccc(N(C)C)cc3)C[C@@]21C` [Mifepristone], 44.5%.
Still for that read-out and setting: with `C[C@H](O)C(=O)C1=Nc2c(nc(N)[nH]c2=O)NC1` [Sepiapterin] the figure was 58.8%.
As for `O=C1NCC2(CCN(CCc3ccccc3)CC2)O1` [Fenspiride hydrochloride], the growth inhibition was determined as 62.6%.
The same measure, in the same setting: with `O=C(Nc1cccnc1)N1CCC(Cc2cccc(Oc3ccc(C(F)(F)F)cn3)c2)CC1` [PF 3845 hydrate] the figure was 53.6%.
`OCCN1CCN(CCCN2c3ccccc3C=Cc3ccccc32)CC1` [Opipramol dihydrochloride]: the growth inhibition was 66.2%.
The same measure, in the same setting: with `CCCCCCN(CCCCCC)C(=O)Cc1c(-c2ccc(F)cc2)[nH]c2ccccc12` [N,N-Dihexyl-2-(4-fluorophenyl)indole-3-acetamide] the figure was 49%; with `O=c1[nH]c2ccccc2c2ccccc12` [6(5H)-Phenanthridinone], 62.3%.
For the compound `C[C@H](N[C@@H](CCc1ccccc1)C(=O)O)C(=O)N1CCC[C@H]1C(=O)O` [Enalaprilat dihydrate], the growth inhibition amounted to 61.1%.
On the same count and under the same terms, with `C#CCN(C)Cc1ccccc1` [Pargyline hydrochloride] the figure was 64.6%.
As for `CN(C)c1ccc(O)c2c1C[C@H]1C[C@H]3[C@H](N(C)C)C(O)=C(C(N)=O)C(=O)[C@@]3(O)C(O)=C1C2=O` [Minocycline hydrochloride], the growth inhibition stood at 53%.
As for `N[C@H](C(=O)O)c1cc(O)cc(O)c1` [(S)-3,5-Dihydroxyphenylglycine], the growth inhibition is 38.4%.
As for `C[N+](C)(C)CCCCCC[N+](C)(C)C` [Hexamethonium bromide], the growth inhibition turned out to be 50.3%.
Same read-out and setting: with `Nc1cc(Cl)c(NC2=NCCN2)c(Cl)c1` [p-Aminoclonidine hydrochloride] the figure was 63.6%.
Still for that read-out and setting: with `N#CC(C#N)=C(N)/C(C#N)=C/c1ccc(O)cc1` [Tyrphostin AG 112] the figure was 68.5%.
Same read-out and setting: with `CC[C@]1(O)C[C@@H]2CN(CCc3c([nH]c4ccccc34)[C@@](C(=O)OC)(c3cc4c(cc3OC)N(C)[C@H]3[C@@](O)(C(=O)OC)[C@H](OC(C)=O)[C@]5(CC)C=CCN6CC[C@]43[C@@H]65)C2)C1` [Vinblastine sulfate salt] the figure was 63.8%.
As to `CN(C)C[C@H](O)Cn1c2ccc(Br)cc2c2cc(Br)ccc21` (racemic) [Wiskostatin], the growth inhibition was 69.7%.
On the same count and under the same terms, with `CCC1(c2ccccc2)C(=O)NCNC1=O` [Primidone] the figure was 53.5%; with `NC(=O)c1ncn([C@@H]2O[C@H](CO)[C@@H](O)[C@H]2O)n1` [Ribavirin], 65.6%; with `CN1CCc2cccc3c2[C@H]1Cc1ccc(O)c(O)c1-3` [Apomorphine hydrochloride hemihydrate], 52.6%.
The same measure, in the same setting: with `NC1CONC1=O` (racemic) [DL-Cycloserine] the figure was 66.7%; with `Nc1nc(N)c2nc(-c3ccccc3)c(N)nc2n1` [Triamterene], 36.9%; with `C[N+](C)(C)CCO.[Br-]` [Choline bromide], 63.1%.
On the same count and under the same terms, with `CC1(C2CCCC2)Cc2cc(OCC(=O)O)c(Cl)c(Cl)c2C1=O` (stereo unspecified) the figure was 54.9%; with `CCCCCCCCCCCCCCCCCCOCC(COP(=O)([O-])OCC[N+](C)(C)C)OC` (stereo unspecified), 80.2%; with `Cc1cccc(-c2[nH]c(C(C)(C)C)nc2-c2ccc3nccnc3c2)n1`, 50.6%.
Turning to `CNCCCC12CCC(c3ccccc31)c1ccccc12` [Maprotiline hydrochloride], the growth inhibition is 50.6%.
Consider `S=C(S)N1CCCC1` [Ammonium pyrrolidinedithiocarbamate], for which the growth inhibition was determined as 83.3%.
Still for that read-out and setting: with `COc1ccc(/C=C/c2nc(NCCCN(C)C)c3ccccc3n2)cc1` the figure was 37.1%.
